PubChem BioAssay AID1259254, NCATS – 2017
Purpose: 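Genome-wide screen for genes that prevent DNA re-replication in cancer cells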 (primary screen). Cell system: human HCT116 colorectal cancer cells. Reagent: single siRNA against human genes. Time to read-out: 3 days. Measurement: 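Nuclei stained with Hoechst and imaged; cell-cycle phase assigned by DNA content; G2 share scaled per plate, non-targeting siRNA 0%, GMNN siRNA 100%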. Reading the numbers: G2 robust z-score and G2 cells, % of GMNN control: higher = more G2 cells, more excess DNA replication; raw share of cells in G2: higher = larger share of cells with G2 DNA content. Active means: 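Active siRNAs have a G2 robust z of 5 or more median absolute deviations over the median, which in these data means about 38% or higher of GMNN control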.
Shown is an unselected part of about 59,000 reagents tested. About 1,550 of them (2.6%) count as active. 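G2 share is only a proxy for re-replication; each gene was hit by three separate siRNAs, and active genes were retested.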 Raw values are not corrected between plates. The numbers tell different reagents against one gene apart. Not stated in the record: the amount of reagent.

| Gene | siRNA no. | G2 robust z-score | G2 cells, % of GMNN control | raw share of cells in G2 (%) | Call |
| --- | --- | --- | --- | --- | --- |
| AP1G2 | 1 | -1.28 | -6.02 | 1.8 | inactive |
| AP1G2 | 2 | -1.07 | -4.53 | 3.09 | inactive |
| AP1G2 | 3 | -0.285 | 0.962 | 5.6 | inactive |
| XPR1 | 1 | 2.92 | 23.5 | 14.2 | inactive |
| XPR1 | 2 | 0.52 | 6.63 | 6.83 | inactive |
| XPR1 | 3 | 0.207 | 4.42 | 4.62 | inactive |
| MRTFB | 1 | -0.62 | -1.4 | 2.3 | inactive |
| MRTFB | 2 | 0.176 | 4.2 | 7.81 | inactive |
| MRTFB | 3 | 2.7 | 22 | 10.5 | inactive |
| HNRNPC | 1 | 1.04 | 10.3 | 8.78 | inactive |
| HNRNPC | 2 | -0.0547 | 2.58 | 6.67 | inactive |
| HNRNPC | 3 | -0.695 | -1.92 | 3.5 | inactive |
| TSPAN16 | 1 | -0.328 | 0.663 | 4.66 | inactive |
| TSPAN16 | 2 | -0.676 | -1.79 | 3.17 | inactive |
| TSPAN16 | 3 | 1.31 | 12.2 | 7.57 | inactive |
| DEDD2 | 1 | 0.234 | 4.62 | 5.26 | inactive |
| DEDD2 | 2 | 2.08 | 17.6 | 8.87 | inactive |
| DEDD2 | 3 | -0.447 | -0.175 | 2.71 | inactive |
| RNF113A | 1 | 0.437 | 6.04 | 6.51 | inactive |
| RNF113A | 2 | 1.68 | 14.8 | 9.36 | inactive |
| RNF113A | 3 | -0.825 | -2.84 | 4.4 | inactive |
| BCL2L12 | 1 | 0.95 | 9.65 | 9.45 | inactive |
| BCL2L12 | 2 | -0.45 | -0.198 | 4.71 | inactive |
| BCL2L12 | 3 | -0.176 | 1.73 | 4.82 | inactive |
| GPLD1 | 1 | 0.561 | 6.91 | 7.75 | inactive |
| GPLD1 | 2 | 0.0102 | 3.04 | 4.74 | inactive |
| GPLD1 | 3 | -0.365 | 0.402 | 5.42 | inactive |
| ATP11A | 1 | 0.568 | 6.97 | 9.16 | inactive |
| ATP11A | 2 | -1.42 | -6.99 | 1.82 | inactive |
| ATP11A | 3 | -0.58 | -1.11 | 3.48 | inactive |
| PLRG1 | 1 | -0.29 | 0.929 | 5.37 | inactive |
| PLRG1 | 2 | -0.116 | 2.15 | 5.07 | inactive |
| PLRG1 | 3 | 0.434 | 6.02 | 5.53 | inactive |
| BPIFB4 | 1 | 0.443 | 6.09 | 5.87 | inactive |
| BPIFB4 | 2 | 1.86 | 16 | 7.86 | inactive |
| BPIFB4 | 3 | -0.0733 | 2.45 | 3.92 | inactive |
| PTCRA | 1 | -0.687 | -1.87 | 2.17 | inactive |
| PTCRA | 2 | 0.0483 | 3.31 | 4.79 | inactive |
| PTCRA | 3 | 1.21 | 11.5 | 6.8 | inactive |
| CENPM | 1 | -0.42 | 0.0126 | 4.59 | inactive |
| CENPM | 2 | -0.252 | 1.19 | 5.14 | inactive |
| CENPM | 3 | -1.35 | -6.51 | 0.979 | inactive |
| G2E3 | 1 | 0.695 | 7.86 | 7.54 | inactive |
| G2E3 | 2 | 0.697 | 7.87 | 7.4 | inactive |
| G2E3 | 3 | 5.01 | 38.2 | 15.3 | active |
| COX17 | 1 | -0.968 | -3.84 | 1.89 | inactive |
| COX17 | 2 | -0.741 | -2.25 | 4.35 | inactive |
| COX17 | 3 | -1.3 | -6.14 | 2.26 | inactive |
| PINK1 | 1 | 0.56 | 6.91 | 7.74 | inactive |
| PINK1 | 2 | -1 | -4.09 | 3.7 | inactive |
| PINK1 | 3 | -1.03 | -4.3 | 2.31 | inactive |
| TMEM247 | 1 | -0.275 | 1.03 | 4.13 | inactive |
| TMEM247 | 2 | 6.21 | 46.7 | 23.7 | active |
| TMEM247 | 3 | -0.436 | -0.099 | 4.59 | inactive |
| DTHD1 | 1 | 0.189 | 4.29 | 5.37 | inactive |
| DTHD1 | 2 | 0.875 | 9.12 | 7.14 | inactive |
| DTHD1 | 3 | -0.78 | -2.52 | 3.75 | inactive |
| NPSR1 | 1 | -0.627 | -1.44 | 4.48 | inactive |
| NPSR1 | 2 | -0.0281 | 2.77 | 5.74 | inactive |
| NPSR1 | 3 | 5.74 | 43.3 | 18.6 | active |
| IL11RA | 1 | 1.76 | 15.4 | 9.84 | inactive |
| IL11RA | 2 | 0.669 | 7.67 | 7.83 | inactive |
| IL11RA | 3 | 0.312 | 5.16 | 7.65 | inactive |
| RRAGD | 1 | 0.618 | 7.31 | 6.93 | inactive |
| RRAGD | 2 | -0.583 | -1.14 | 3.81 | inactive |
| RRAGD | 3 | 2.67 | 21.8 | 14.7 | inactive |
| ABL2 | 1 | 1.22 | 11.6 | 9.43 | inactive |
| ABL2 | 2 | 0.873 | 9.11 | 8.48 | inactive |
| ABL2 | 3 | -0.954 | -3.75 | 2.7 | inactive |
